{"sequences": {"note": "Amino acid sequences for entries named in this document (tags omitted). Residues count along the entry.", "UniProt P00747, 97-580 partner limits assumed": "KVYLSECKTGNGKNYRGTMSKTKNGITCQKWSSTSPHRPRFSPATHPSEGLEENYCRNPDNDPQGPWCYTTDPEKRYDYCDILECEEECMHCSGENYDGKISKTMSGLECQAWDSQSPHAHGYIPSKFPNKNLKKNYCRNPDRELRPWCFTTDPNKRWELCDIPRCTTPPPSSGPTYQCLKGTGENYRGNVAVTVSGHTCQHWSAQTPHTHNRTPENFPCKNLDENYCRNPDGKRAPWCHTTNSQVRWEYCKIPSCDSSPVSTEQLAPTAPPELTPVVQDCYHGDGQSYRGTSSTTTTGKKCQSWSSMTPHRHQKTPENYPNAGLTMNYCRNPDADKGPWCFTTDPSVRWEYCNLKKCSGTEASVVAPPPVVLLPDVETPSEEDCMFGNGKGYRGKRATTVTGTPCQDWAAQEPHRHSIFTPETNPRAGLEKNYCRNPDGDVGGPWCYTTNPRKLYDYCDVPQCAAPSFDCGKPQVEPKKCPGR", "UniProt P00747, 581-810 limits assumed": "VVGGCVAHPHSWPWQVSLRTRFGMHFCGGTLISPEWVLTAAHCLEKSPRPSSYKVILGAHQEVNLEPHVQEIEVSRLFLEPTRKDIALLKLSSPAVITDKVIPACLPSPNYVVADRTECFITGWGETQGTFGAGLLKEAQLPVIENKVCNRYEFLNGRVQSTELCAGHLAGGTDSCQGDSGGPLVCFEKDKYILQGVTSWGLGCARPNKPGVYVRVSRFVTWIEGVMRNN", "UniProt P00743, 41-180 partner limits assumed": "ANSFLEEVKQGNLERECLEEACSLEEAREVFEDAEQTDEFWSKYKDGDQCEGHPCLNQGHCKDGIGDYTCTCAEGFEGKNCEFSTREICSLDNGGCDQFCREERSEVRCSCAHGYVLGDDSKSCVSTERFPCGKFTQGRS", "UniProt P00743, 234-492 limits assumed": "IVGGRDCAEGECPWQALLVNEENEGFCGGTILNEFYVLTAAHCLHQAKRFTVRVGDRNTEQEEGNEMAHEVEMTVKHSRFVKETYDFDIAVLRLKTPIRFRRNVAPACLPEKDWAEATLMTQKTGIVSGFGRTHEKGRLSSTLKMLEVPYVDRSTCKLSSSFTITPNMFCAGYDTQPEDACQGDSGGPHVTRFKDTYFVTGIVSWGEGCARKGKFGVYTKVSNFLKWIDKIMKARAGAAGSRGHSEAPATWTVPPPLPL"}, "source": "patent US5116941A", "about": "“Peptide substrates for determination of enzyme activity” (Nitto Boseki Co., Ltd., priority 1988, dated 1992)", "key": {"Trypsin": {"biological_target": "T1, Trypsin (Bos taurus, UniProt P00760)", "T1 construct": "purchased Wersinton (so in the source)", "T1 sequence (P00760 24-246)": "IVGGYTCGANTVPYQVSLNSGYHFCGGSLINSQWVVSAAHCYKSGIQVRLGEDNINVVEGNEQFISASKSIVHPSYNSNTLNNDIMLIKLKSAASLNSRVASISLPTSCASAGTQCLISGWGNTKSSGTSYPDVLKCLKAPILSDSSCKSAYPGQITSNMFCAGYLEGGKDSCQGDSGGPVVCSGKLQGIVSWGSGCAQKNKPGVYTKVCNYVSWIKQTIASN", "experiment": "Substrate specificity: enzyme reaction with trypsin, colorimetric", "assay_type": "biochemical, Bovine", "conditions": "700 nm; So = 0.4 mmol; 37° C., 5 minutes; pH 8.0; pentacyanoamineferroate", "experimental": "(§1) Specificity of each of the new substrates synthesized in Examples 1 through 4 was examined by reacting with each enzyme. Details of reagents used are as described below.\n(§2) (2) Buffer: concentration of Tris, NaCl and CaCl2 and pH (25° C.) were set as shown below, depending upon enzyme. […]\n(§3) Enzyme used and its source, etc. are as follows. […]\nTrypsin Bovine Wersinton 31M771 10 μg/ml\n(§4) (4) Terminate solution (PNA): 10% acetic acid\n(§5) (5) Color forming reagent (CHA): pentacyanoamineferroate\n(§6) Buffer, 0.5 ml and 0.1 ml of substrate solution are charged in a silicone-treated hard glass test tube or plastic test tube. The mixture is previously heated for 10 minutes in a thermostat at 37° C. Then, 0.1 ml of enzyme solution is added to the mixture to perform enzyme reaction at 37° C. for 5 minutes. Accurately 5 minutes after, 2.0 ml of the terminate solution is added to stop the enzyme reaction. Then the reaction mixture is allowed to stand at 37° C. for 10 minutes and its absorbance is measured at 405 nm or 700 nm."}, "Thrombin": {"biological_target": "T2, Thrombin (Bos taurus, UniProt P00735)", "T2 construct": "purchased Mochida Pharmaceutical Company Lot 65146", "experiment": "Substrate specificity: enzyme reaction with thrombin, colorimetric", "assay_type": "biochemical, Bovine", "conditions": "700 nm; So = 0.4 mmol; 37° C., 5 minutes; pH 8.5; pentacyanoamineferroate", "experimental": "as §1, §2, §3, §4, §5, §6"}, "Plasmin": {"biological_target": "Plasmin (Homo sapiens, UniProt P00747)", "experiment": "Substrate specificity: enzyme reaction with plasmin, colorimetric", "assay_type": "biochemical", "parameters": "purchased Green Cross Company Lot PL-35", "conditions": "700 nm; So = 0.4 mmol; 37° C., 5 minutes; pH 7.8; pentacyanoamineferroate", "experimental": "as §1, §2, §3\nPlasmin Human Green Cross PL-35 0.25 CU/ml\nas §4, §5, §6"}, "Factor Xa": {"biological_target": "T3, Factor Xa (Bos taurus, UniProt P00743)", "T3 construct": "purchased Sigma Inc. Lot 73F-9450", "experiment": "Substrate specificity: enzyme reaction with factor Xa, colorimetric", "assay_type": "biochemical, Bovine", "conditions": "700 nm; So = 0.4 mmol; 37° C., 5 minutes; pH 8.3; pentacyanoamineferroate", "experimental": "as §1, §2, §3, §4, §5, §6"}, "Kallikrein": {"system": "Kallikrein", "experiment": "Substrate specificity: enzyme reaction with kallikrein, colorimetric", "assay_type": "biochemical, Swine", "conditions": "700 nm; So = 0.4 mmol; 37° C., 5 minutes; pH 7.8; pentacyanoamineferroate", "experimental": "as §1, §2, §3, §4, §5, §6"}}, "note": "Not every detail of the peptide structures is certain; ends, links or a residue may be inferred."}
{"compound": "COC(=O)CC[C@@H](N)C(=O)NCC(=O)N[C@@H](CCCNC(=N)N)C(=O)Nc1ccc(O)c(C(=O)O)c1", "note": "[PS-1297, H--D--Glu(OCH3)--Gly--Arg--CHA.2HCl]", "values": [{"measurement": "absorbance (O.D.) measured, Try", "setting": "Trypsin", "result": 0.585, "unit": "O.D."}, {"measurement": "absorbance (O.D.) measured, TH", "setting": "Thrombin", "result": 0.002, "unit": "O.D."}, {"measurement": "absorbance (O.D.) measured, PL", "setting": "Plasmin", "result": 0.005, "unit": "O.D."}, {"measurement": "absorbance (O.D.) measured, FXa", "setting": "Factor Xa", "result": 0.005, "unit": "O.D."}, {"measurement": "absorbance (O.D.) measured, KL", "setting": "Kallikrein", "result": 0.002, "unit": "O.D."}]}
{"compound": "CCCOC(=O)CC[C@@H](N)C(=O)NCC(=O)N[C@@H](CCCNC(=N)N)C(=O)Nc1ccc(O)c(C(=O)O)c1", "note": "[PS-1299, H--D--Glu(O^n Pr)--Gly--Arg--CHA.2HCl]", "values": [{"measurement": "absorbance (O.D.) measured, Try", "setting": "Trypsin", "result": 0.503, "unit": "O.D."}, {"measurement": "absorbance (O.D.) measured, TH", "setting": "Thrombin", "result": 0.005, "unit": "O.D."}, {"measurement": "absorbance (O.D.) measured, PL", "setting": "Plasmin", "result": 0.005, "unit": "O.D."}, {"measurement": "absorbance (O.D.) measured, FXa", "setting": "Factor Xa", "result": 0.020, "unit": "O.D."}, {"measurement": "absorbance (O.D.) measured, KL", "setting": "Kallikrein", "result": 0.006, "unit": "O.D."}]}
{"compound": "CC(C)OC(=O)CC[C@@H](N)C(=O)NCC(=O)N[C@@H](CCCNC(=N)N)C(=O)Nc1ccc(O)c(C(=O)O)c1", "note": "[PS-1300, H--D--Glu(O^i Pr)--Gly--Arg--CHA.2HCl]", "values": [{"measurement": "absorbance (O.D.) measured, Try", "setting": "Trypsin", "result": 0.595, "unit": "O.D."}, {"measurement": "absorbance (O.D.) measured, TH", "setting": "Thrombin", "result": 0.003, "unit": "O.D."}, {"measurement": "absorbance (O.D.) measured, PL", "setting": "Plasmin", "result": 0.006, "unit": "O.D."}, {"measurement": "absorbance (O.D.) measured, FXa", "setting": "Factor Xa", "result": 0.021, "unit": "O.D."}, {"measurement": "absorbance (O.D.) measured, KL", "setting": "Kallikrein", "result": 0.004, "unit": "O.D."}]}
{"compound": "CC(C)(C)OC(=O)CC[C@@H](N)C(=O)NCC(=O)N[C@@H](CCCNC(=N)N)C(=O)Nc1ccc(O)c(C(=O)O)c1", "note": "[PS-1301, H--D--Glu(O^t Bu)--Gly--Arg--CHA]", "values": [{"measurement": "absorbance (O.D.) measured, Try", "setting": "Trypsin", "result": 0.538, "unit": "O.D."}, {"measurement": "absorbance (O.D.) measured, TH", "setting": "Thrombin", "result": 0.007, "unit": "O.D."}, {"measurement": "absorbance (O.D.) measured, PL", "setting": "Plasmin", "result": 0.002, "unit": "O.D."}, {"measurement": "absorbance (O.D.) measured, FXa", "setting": "Factor Xa", "result": 0.023, "unit": "O.D."}, {"measurement": "absorbance (O.D.) measured, KL", "setting": "Kallikrein", "result": 0.003, "unit": "O.D."}]}
